Assay results published in PubChem BioAssay AID771 (SRMLSC, 2007).
The list shows a part of the results.

test: HT29 colon tumor cell growth inhibition, primary screen, imaging, high content imaging, 48 h, CellTiter-Glo (AID 771); conditions: HCS imaging cell count, at 10 µM, stronger effect = higher value; condensed nuclei: measured here: percent cells with condensed nuclei; growth inhibition: measured here: ATP CellTiter-Glo viability inhibition;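 on condensed nuclei: condensed means Hoechst nuclear area under control median minus 1.5 SD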

Row | SMILES | condensed nuclei [%] | growth inhibition [%]
1 | CCN(CC)CC(O)COC(=O)C(O)(c1ccccc1)C1CCCCC1 (stereo unspecified) | 4.82 | 49.3
2 | Cc1ccc(OCC(=O)OC2CN3CCC2CC3)cc1 (stereo unspecified) | 1.92 | -8.18
3 | Cc1cccc(OCC(=O)OC2CN3CCC2CC3)c1 (stereo unspecified) | 0.84 | -5.98
